Assay results published in publication PMC3402478.

Amino acid sequences for entries named in this document (tags omitted). A change or cut given only in a name is not applied to a line headed by its entry. Residues count along the entry.
UniProt P09629, 1-209, stated change not applied: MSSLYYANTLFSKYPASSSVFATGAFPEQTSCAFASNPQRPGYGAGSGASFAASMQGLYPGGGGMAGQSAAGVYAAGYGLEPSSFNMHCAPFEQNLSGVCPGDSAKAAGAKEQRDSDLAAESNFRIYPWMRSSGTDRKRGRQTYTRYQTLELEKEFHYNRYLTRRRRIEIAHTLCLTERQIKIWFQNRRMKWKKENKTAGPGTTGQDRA
UniProt P49639: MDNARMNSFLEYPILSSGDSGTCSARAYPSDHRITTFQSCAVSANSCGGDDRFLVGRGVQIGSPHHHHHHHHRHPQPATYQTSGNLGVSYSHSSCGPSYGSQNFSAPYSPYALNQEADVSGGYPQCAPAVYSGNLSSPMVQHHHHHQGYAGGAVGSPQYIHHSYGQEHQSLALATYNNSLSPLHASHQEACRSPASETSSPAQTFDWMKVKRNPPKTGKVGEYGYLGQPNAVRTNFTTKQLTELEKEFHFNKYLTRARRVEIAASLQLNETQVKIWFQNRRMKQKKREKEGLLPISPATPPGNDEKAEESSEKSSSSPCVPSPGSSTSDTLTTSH
UniProt P31268: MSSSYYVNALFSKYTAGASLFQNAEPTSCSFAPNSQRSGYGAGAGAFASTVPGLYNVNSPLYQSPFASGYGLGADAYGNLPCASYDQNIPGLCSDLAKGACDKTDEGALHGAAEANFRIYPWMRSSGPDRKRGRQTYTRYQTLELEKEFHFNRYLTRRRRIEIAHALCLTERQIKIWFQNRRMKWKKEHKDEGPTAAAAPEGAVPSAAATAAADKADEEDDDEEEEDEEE
UniProt P09630: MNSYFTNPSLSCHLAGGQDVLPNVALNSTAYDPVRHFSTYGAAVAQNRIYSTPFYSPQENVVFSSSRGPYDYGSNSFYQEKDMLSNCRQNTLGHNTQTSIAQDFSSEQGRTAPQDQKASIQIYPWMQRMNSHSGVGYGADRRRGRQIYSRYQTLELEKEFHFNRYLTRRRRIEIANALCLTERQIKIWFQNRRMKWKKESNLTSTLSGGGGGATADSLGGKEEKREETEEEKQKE
UniProt P17509, whole entry K221E: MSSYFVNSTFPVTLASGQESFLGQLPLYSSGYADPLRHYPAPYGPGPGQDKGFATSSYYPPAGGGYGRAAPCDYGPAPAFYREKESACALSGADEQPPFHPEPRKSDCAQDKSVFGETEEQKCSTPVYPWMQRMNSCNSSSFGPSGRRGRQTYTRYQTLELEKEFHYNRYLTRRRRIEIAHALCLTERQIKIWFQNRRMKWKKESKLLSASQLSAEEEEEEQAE
UniProt P20719: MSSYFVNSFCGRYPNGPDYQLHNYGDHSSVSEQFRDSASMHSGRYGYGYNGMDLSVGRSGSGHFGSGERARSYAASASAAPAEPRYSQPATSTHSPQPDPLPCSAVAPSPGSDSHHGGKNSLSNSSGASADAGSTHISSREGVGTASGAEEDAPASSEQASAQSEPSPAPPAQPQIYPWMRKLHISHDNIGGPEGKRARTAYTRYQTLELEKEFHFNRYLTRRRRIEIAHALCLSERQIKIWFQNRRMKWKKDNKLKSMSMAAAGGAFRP

Tests used:
FLAG-HOXB7 = FLAG-HOXB7 (UniProt P09629); assay: pull-down (ONP); conditions: ONP: 60 mM KCl, 12 mM HEPES pH 7.9, 4 mM Tris-HCl, 5% glycerol, 0.5 mM EDTA, 1 mM DTT, 4 C, 3 h, protein in a lysate after overexpression, protein details: FLAG, label: 5' biotin on S1
FLAG-HOXA1 = FLAG-HOXA1 (UniProt P49639); assay: pull-down (ONP); conditions: with or without PARP-1, not suppressed; ONP: 60 mM KCl, 12 mM HEPES pH 7.9, 4 mM Tris-HCl, 5% glycerol, 0.5 mM EDTA, 1 mM DTT, 4 C, 3 h; protein in a lysate after overexpression; protein details: N-terminal FLAG; label: 5' biotin on S1
FLAG-HOXA7 = FLAG-HOXA7 (UniProt P31268); assay: pull-down (ONP); conditions: ONP: 60 mM KCl, 12 mM HEPES pH 7.9, 4 mM Tris-HCl, 5% glycerol, 0.5 mM EDTA, 1 mM DTT, 4 C, 3 h, protein in a lysate after overexpression, protein details: N-terminal FLAG, label: 5' biotin on S1
FLAG-HOXC6 = FLAG-HOXC6 (UniProt P09630); assay: pull-down (ONP); conditions: with or without PARP-1, not suppressed; ONP: 60 mM KCl, 12 mM HEPES pH 7.9, 4 mM Tris-HCl, 5% glycerol, 0.5 mM EDTA, 1 mM DTT, 4 C, 3 h; protein in a lysate after overexpression; protein details: N-terminal FLAG; label: 5' biotin on S1
HOXB7deltaGlu = HOXB7deltaGlu (UniProt P09629); assay: pull-down (ONP); conditions: ONP: 60 mM KCl, 12 mM HEPES pH 7.9, 4 mM Tris-HCl, 5% glycerol, 0.5 mM EDTA, 1 mM DTT, 4 C, 3 h, protein in a lysate after overexpression, protein details: FLAG, label: 5' biotin on S1
FLAG-HOXB6 K221E = FLAG-HOXB6 K221E (UniProt P17509); assay: pull-down (ONP); conditions: ONP: 60 mM KCl, 12 mM HEPES pH 7.9, 4 mM Tris-HCl, 5% glycerol, 0.5 mM EDTA, 1 mM DTT, 4 C, 3 h, protein in a lysate after overexpression, protein details: FLAG, label: 5' biotin on S1
FLAG-HOXB6 = FLAG-HOXB6 (UniProt P17509); assay: pull-down (ONP); conditions: with or without PARP-1, not suppressed; ONP: 60 mM KCl, 12 mM HEPES pH 7.9, 4 mM Tris-HCl, 5% glycerol, 0.5 mM EDTA, 1 mM DTT, 4 C, 3 h; protein in a lysate after overexpression; protein details: N-terminal FLAG; label: 5' biotin on S1
FLAG-HOXA5 = FLAG-HOXA5 (UniProt P20719); assay: pull-down (ONP); conditions: with or without PARP-1, not suppressed; ONP: 60 mM KCl, 12 mM HEPES pH 7.9, 4 mM Tris-HCl, 5% glycerol, 0.5 mM EDTA, 1 mM DTT, 4 C, 3 h; protein in a lysate after overexpression; protein details: N-terminal FLAG; label: 5' biotin on S1
GST-HOXB7 = GST-HOXB7 (UniProt P09629); assay: EMSA; conditions: + PARP-1 and NAD+ (poly(ADP-ribosyl)ation); EMSA: 50 mM Tris-HCl pH 7.5, 50 mM NaCl, 1 mM MgCl2, 0.5 mM DTT, 4% glycerol, 0.5 mM EDTA, 0.25 mg/ml poly(dI-dC), 20 min, gel at room temperature; recombinant protein; protein details: GST; label: 32P
GST = assay: EMSA; conditions: EMSA: 50 mM Tris-HCl pH 7.5, 50 mM NaCl, 1 mM MgCl2, 0.5 mM DTT, 4% glycerol, 0.5 mM EDTA, 0.25 mg/ml poly(dI-dC), 20 min, gel at room temperature; recombinant protein; label: 32P

| Sequence | binding result (FLAG-HOXB7; PARP-1 E988A overexpressed, no suppression) | binding result (FLAG-HOXB7; PARP-1 deltaZF1 overexpressed, no suppression) | binding result (FLAG-HOXB7; PARP-1 overexpressed + DPQ, binding restored) | binding result (FLAG-HOXB7; PARP-1 overexpressed + PARG, binding restored) | binding result (FLAG-HOXB7; PARP-1 overexpressed) | binding result (FLAG-HOXB7; no PARP-1 overexpression, DPQ increases binding) | binding result (FLAG-HOXA1) | binding result (FLAG-HOXA7; PARP-1 overexpressed + DPQ, partially restored) | binding result (FLAG-HOXA7; PARP-1 overexpressed) | binding result (FLAG-HOXA7; no PARP-1 overexpression) | binding result (FLAG-HOXC6) | binding result (HOXB7deltaGlu; PARP-1 overexpressed, suppression abolished) | binding result (HOXB7deltaGlu; no PARP-1 overexpression) | binding result (FLAG-HOXB6 K221E; PARP-1 overexpressed) | binding result (FLAG-HOXB6 K221E; no PARP-1 overexpression) | binding result (FLAG-HOXB6) | binding result (FLAG-HOXA5) | binding result (GST-HOXB7) | binding result (GST) |
| --- | --- | --- | --- | --- | --- | --- | --- | --- | --- | --- | --- | --- | --- | --- | --- | --- | --- | --- | --- |
| AAATATCAATTAAATCTTAATTATAA (double strand) [biotin-HBS] | binds | binds | binds | binds | binds more weakly | binds | binds | binds | binds more weakly | binds | binds | binds | binds | binds more weakly | binds | binds | binds |  |  |
| AAATATCAATTAAATCTTAATTATAA (double strand) [HBS EMSA probe] |  |  |  |  |  |  |  |  |  |  |  |  |  |  |  |  |  | binds more weakly | no binding |

For at least one entry, the source does not settle the construct or the ends of the probe. For some of these results: A negative result means that nothing was seen under these conditions. For some of these results: The comparison behind a weaker result is the experiment's own reference, which may not be listed here. For some of these results: Results from cells or extracts need not show a direct contact. For some of these results: At least one verdict was read from the data and is not stated in words by the source.
